Measured data: PubChem BioAssay AID1259308 (NCATS, 2017)
The whole screen tested about 59,000 reagents; this is a part drawn at random. Of all reagents, about 1,510 (2.6%) got an active call. 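Calls use total luciferase alone and ignore viability, so some active siRNAs may act by altering cell number.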 Entries without a mark were called inactive. Reagents against one gene are numbered here. No sequences are given here.

Aim: 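Candidate targets for better recombinant protein yield in mammalian cells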 (primary screen)
Cell system: human HEK293 embryonic kidney cells stably expressing firefly luciferase (HEK-CMV-Luc2-Hygro)
Reagent: single siRNA against human genes, 0.8 pmol siRNA per well
Timing: 72 h
Detection: 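Luciferase light (ONE-Glo) measured on one replicate plate set and viability (CellTiter-Glo) on the other, scaled to a negative control siRNA, with robust z-scores and luciferase per cell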
Direction: total luciferase, z-score and total luciferase, % of control: higher = more reporter protein produced; luciferase per cell, z-score: higher = more reporter output per viable cell; viable cells, % of control: higher = more viable cells
Call rule: 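Active when the median/MAD z-score for overall luciferase is greater than 3; a gene was taken forward for validation with new siRNAs if at least two of its three siRNAs passed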
Meaning of the calls: active = raised luciferase; inactive = no rise

target | siRNA no. | total luciferase, z-score | total luciferase, % of control | luciferase per cell, z-score | viable cells, % of control
PSAPL1 | 1 | 0.792 | 97.6 | 1.43 | 74.9
PSAPL1 | 2 | 0.223 | 86.3 | 0.482 | 85
PSAPL1 | 3 | 0.249 | 86.8 | 0.784 | 78.9
LOC728283 (retired record) | 1 | 1.42 | 110 | 2.32 | 66.8
LOC728283 (retired record) | 2 | -1.04 | 61.2 | 0.233 | 64.4
LOC728283 (retired record) | 3 | -1.05 | 60.9 | -1.32 | 96.5
DLK1 | 1 | 1.09 | 104 | 0.637 | 97.9
DLK1 | 2 | -0.533 | 71.3 | 0.289 | 73.8
DLK1 | 3 | 0.266 | 87.2 | -0.371 | 107
AOX1 | 1 | -0.429 | 73.3 | -0.52 | 94
AOX1 | 2 | -1.72 | 47.7 | -1.24 | 73.8
AOX1 | 3 | -0.753 | 66.9 | -0.972 | 96.6
ARHGEF19 | 1 | -0.534 | 71.3 | -0.596 | 93.2
ARHGEF19 | 2 | 3.63 (active) | 154 | 1.71 | 110
ARHGEF19 | 3 | 0.804 | 97.9 | 0.0916 | 107
NEDD4 | 1 | -1.24 | 57.2 | -1.71 | 100
NEDD4 | 2 | -0.73 | 67.4 | -0.892 | 95.2
NEDD4 | 3 | 0.387 | 89.6 | 1.14 | 74.1
DOHH | 1 | 0.373 | 89.3 | 0.256 | 93.3
DOHH | 2 | 0.258 | 87 | 0.95 | 75.7
DOHH | 3 | -0.3 | 75.9 | -0.198 | 89.4

Looked up above:
Under “viable cells, % of control”, AOX1 #1 reads 94
PSAPL1 #3, total luciferase, z-score = 0.249
Result of LOC728283 (retired record) #1 in “luciferase per cell, z-score”: 2.32
Result of ARHGEF19 #2 in “viable cells, % of control”: 110 (active)
DOHH #3, total luciferase, z-score = -0.3
For “luciferase per cell, z-score”, PSAPL1 #1 is entered as 1.43

Additional results follow.
target | siRNA no. | total luciferase, z-score | total luciferase, % of control | luciferase per cell, z-score | viable cells, % of control
SLC25A34 | 1 | -0.00419 | 81.8 | -0.348 | 100
SLC25A34 | 2 | 1.16 | 105 | 1.22 | 85.1
SLC25A34 | 3 | 0.529 | 92.4 | 0.0366 | 102
IGFBP1 | 1 | 1.49 | 111 | 1.45 | 85
IGFBP1 | 2 | 0.00569 | 82 | -0.426 | 103
IGFBP1 | 3 | -0.102 | 79.9 | -0.364 | 98.2
FOXRED2 | 1 | -2.06 | 40.9 | -2.22 | 81.8
FOXRED2 | 2 | -0.361 | 74.7 | -0.336 | 91.2
FOXRED2 | 3 | -0.239 | 77.1 | -0.348 | 94.5
RGMB | 1 | -0.284 | 76.2 | 0.526 | 74.2
RGMB | 2 | -0.0681 | 80.5 | 0.198 | 85.4
RGMB | 3 | -0.173 | 78.4 | -0.214 | 92.7
RASAL2 | 1 | 2.12 | 124 | 2.38 | 74.1
RASAL2 | 2 | -0.973 | 62.5 | -0.903 | 88.6
RASAL2 | 3 | -0.506 | 71.8 | 0.165 | 76.9
USP44 | 1 | 0.0682 | 83.2 | -0.111 | 95.8
USP44 | 2 | 0.0484 | 82.8 | -0.388 | 103
USP44 | 3 | -0.0683 | 80.5 | -0.556 | 104
KCNJ12 | 1 | 0.0519 | 82.9 | -0.0448 | 93.8
KCNJ12 | 2 | -1 | 62 | -0.0408 | 70
KCNJ12 | 3 | 0.565 | 93.1 | -0.262 | 111
ZBED5-AS1 | 1 | 0.717 | 96.2 | 0.886 | 85.1
ZBED5-AS1 | 2 | 0.0272 | 82.4 | -0.31 | 99.9
ZBED5-AS1 | 3 | 0.175 | 85.4 | -0.62 | 112
ARHGEF11 | 1 | -0.322 | 75.5 | -0.817 | 105
ARHGEF11 | 2 | 1.26 | 107 | 1.17 | 87.8
ARHGEF11 | 3 | -1.48 | 52.4 | -1.55 | 88
TMEM108 | 1 | 0.00379 | 82 | -0.631 | 108
TMEM108 | 2 | 0.121 | 84.3 | -0.563 | 109
TMEM108 | 3 | 0.616 | 94.1 | 1.12 | 78.4
SPRR2B | 1 | -0.461 | 72.7 | -1.14 | 110
SPRR2B | 2 | 0.138 | 84.6 | 0.549 | 81.8
SPRR2B | 3 | 1.4 | 110 | 1.76 | 77.3
NFAT5 | 1 | -0.61 | 69.7 | -0.362 | 85.7
NFAT5 | 2 | -0.907 | 63.8 | -0.691 | 85.6
NFAT5 | 3 | -0.36 | 74.7 | 0.422 | 74.7
